Experimental data taken from patent US11773081B2, “Pharmaceutical composition for preventing or treating wound, comprising indirubin derivative as active ingredient” (CK Regeon Inc., priority 2018, dated 2023).
At least one structure is not confirmed: it was looked up by name or label, or the drawing left a doubt.

Tested on: HaCaT cells
Assay: Cell motility of keratinocytes, indirubin derivative and low-molecular-weight compound mixtures (Test Example 3)
Format: cell-based, human
Conditions: HaCaT scratch; 18 hours later; methyl vanillate 5 μM, hesperidin 1 μM, quercitrin 1 μM
Procedure: For analysis of wound healing effect, cell motility was compared for treatment with the indirubin derivative prepared in Example 2, the methyl vanillate of Example 5, the hesperidin of Example 6, the quercitrin of Example 7 and the mixtures prepared in Examples 9-11.
HaCaT cells, which are human keratinocytes playing an important role in wound healing, were cultured in a 12-well plate for 24 hours using DMEM containing 10% FBS. Then, after replacing the medium with DMEM containing 5% FBS, a scratch was made at the center of the cells using a 1000p (blue) tip. Then, after treating the scratched area with each of the indirubin derivative prepared in Example 2, the methyl vanillate of Example 5, the hesperidin of Example 6, the quercitrin of Example 7 and the mixtures prepared in Examples 9-11 at a concentration of 1 μM or 5 μM, cell motility was observed 18 hours later.
Specifically, the concentration of the indirubin derivative prepared in Example 2, the hesperidin of Example 6 and the quercitrin of Example 7 was 1 μM, the concentration of the methyl vanillate of Example 5 was 5 μM, and the mixtures prepared in Examples 9-11 were prepared by mixing 1 μM indirubin derivative with 5 μM methyl vanillate, 1 μM hesperidin or 1 μM quercitrin.
The control group (control) means non-treated keratinocytes. […]

C[C@@H]1O[C@@H](Oc2c(-c3ccc(O)c(O)c3)oc3cc(O)cc(O)c3c2=O)[C@H](O)[C@H](O)[C@H]1O [Example 7, Quercitrin]
cell motility compared with the control group: no difference in cell motility
